# Experimental data: PubChem BioAssay AID504793 (Drosophila RNAi Screening Center, 2011)
# Assay: 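Knock-downs allowing continued mitosis even though DNA is damaged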 (primary screen)
# Cells: Drosophila S2R+ cells
# Knock-down reagent: long dsRNA against Drosophila genes, about 0.25 µg dsRNA per well
# Duration: 4 days of dsRNA, then 4 hours of drug before read-out
# Treatment: doxorubicin 0.5 µM for 4 hours to cause double-strand breaks, in cells also given a low, harmless dose of dsRNA against nbs to sensitise the assay
# Measured: 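Per-well count of mitotic cells stained for phospho-histone H3 after doxorubicin exposure, used as mitotic index; counts are raw and not normalised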
# Reading the numbers: mitotic cells: higher = more cells in mitosis, weaker G2 arrest
# Rule for the call: 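a call needs confirmation in secondary tests, with other dsRNAs and a check of mitotic timing without damage, not just a high primary count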
# Calls: active = confirmed in follow-up tests; inactive = not confirmed
# The screen tested about 23,000 reagents; this is a random part of those with a known target gene and a result. Over the whole deposit, 62 (0.27%) got an active call. 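Calls come from follow-up tests whose scores are not deposited, so confirmed genes may have low counts here; counts are not normalised per plate.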 Raw values vary from plate to plate and are shown uncorrected. Unmarked entries are inactive. Names joined by + are all predicted targets of the reagent.
Gene,dsRNA,"mitotic cells, replicate 1","mitotic cells, replicate 2"
CG4382,DRSC02743,7,4
CG4382,DRSC29493,14,
CG31798,DRSC01702,3,
CG31798,DRSC27963,7,
CG31997,DRSC17105,5,
PGRP-LE (Peptidoglycan recognition protein LE),DRSC20137,5,
Hph (HIF prolyl hydroxylase),DRSC12164,9,
Hph (HIF prolyl hydroxylase),DRSC12251,3,
Hph (HIF prolyl hydroxylase),DRSC25979,7,
fln (flightin),DRSC11346,10,
fln (flightin),DRSC28670,6,
CG9467,DRSC16498,8,
g (garnet),DRSC20335,10,
g (garnet),DRSC26118,7,
side-VI (sidestep VI),DRSC14920,5,
side-VI (sidestep VI),DRSC23088,6,
side-VI (sidestep VI),DRSC28883,1,
Xpd (Xeroderma pigmentosum D),DRSC04666,3,
Xpd (Xeroderma pigmentosum D),DRSC27757,9,
CG15144,DRSC02445,5,
CG15144,DRSC27073,2,
E(var)3-9 (Enhancer of variegation 3-9),DRSC23242,2,
E(var)3-9 (Enhancer of variegation 3-9),DRSC29480,6,
pasi1 (pasiflora 1),DRSC16299,3,14
pasi1 (pasiflora 1),DRSC22385,14,
pasi1 (pasiflora 1),DRSC26688,3,
CG32772,DRSC18406,2,
CG32772,DRSC22349,4,
e(r) (enhancer of rudimentary),DRSC18768,6,

Continued; the last 2 above are carried over.
Gene,dsRNA,"mitotic cells, replicate 1","mitotic cells, replicate 2"
CG32772,DRSC22349,4,
e(r) (enhancer of rudimentary),DRSC18768,6,
Klp54D (Kinesin-like protein at 54D),DRSC07450,3,
Mec2,DRSC20054,8,
Mec2,DRSC26162,9,
kek6 (kekkon 6),DRSC15299,7,
kek6 (kekkon 6),DRSC23759,6,
Rab10,DRSC20572,7,
Rab10,DRSC25270,7,
CG14866,DRSC14989,9,
sub (subito),DRSC06125,6,
CG14377 + CG14374,DRSC26405,5,
CG1979,DRSC12495,4,
CG1979,DRSC24707,4,
CG10011,DRSC14174,6,
Rtca (RNA 3'-terminal phosphate cyclase),DRSC18517,5,
SPR (Sex peptide receptor),DRSC17886,7,
SPR (Sex peptide receptor),DRSC18114,16,
SPR (Sex peptide receptor),DRSC21557,7,
